Results: PubChem BioAssay AID1671190 (National Center for Advancing Translational Sciences (NCATS), 2021)
The campaign covered roughly 580,000 compounds. About 6,100 (1.1%) were called active. Inconclusive results, whose numbers are uncertain, are shown with a selection of clear calls. Calls come from the whole dose curve; as a rule, active = well fitted inhibition curve with a large enough effect; inconclusive = small, poorly fitted or top-dose-only effect, or another doubt; inactive = no such curve, though single readings can be large or run the other way. Potencies beside an inconclusive call are fits to weak or partial responses and may not hold up.
% is set by controls: 0 for no effect and ±100 for the full control effect; potency is the fitted concentration of half-maximal effect.

Amino acid sequences for entries named in this document (tags omitted). A change or cut given only in a name is not applied to a line headed by its entry.
UniProt P18054: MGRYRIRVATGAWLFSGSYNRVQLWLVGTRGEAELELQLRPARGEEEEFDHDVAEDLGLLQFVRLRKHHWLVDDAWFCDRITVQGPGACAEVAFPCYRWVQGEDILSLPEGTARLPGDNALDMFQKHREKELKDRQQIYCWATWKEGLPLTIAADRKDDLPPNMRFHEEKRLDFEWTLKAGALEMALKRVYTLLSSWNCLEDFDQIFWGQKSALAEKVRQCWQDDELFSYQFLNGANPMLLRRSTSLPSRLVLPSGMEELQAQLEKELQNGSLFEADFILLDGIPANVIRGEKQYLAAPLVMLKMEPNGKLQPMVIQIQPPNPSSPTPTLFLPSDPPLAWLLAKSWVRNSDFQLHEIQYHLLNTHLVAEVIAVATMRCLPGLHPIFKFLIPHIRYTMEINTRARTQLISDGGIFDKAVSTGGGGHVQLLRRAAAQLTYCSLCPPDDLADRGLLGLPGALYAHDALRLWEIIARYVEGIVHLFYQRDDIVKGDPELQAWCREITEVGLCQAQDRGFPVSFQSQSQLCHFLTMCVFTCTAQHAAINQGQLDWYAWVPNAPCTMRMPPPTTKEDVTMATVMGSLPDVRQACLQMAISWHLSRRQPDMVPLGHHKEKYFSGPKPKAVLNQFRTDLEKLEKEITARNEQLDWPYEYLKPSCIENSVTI

Each molecule was assayed against Polyunsaturated fatty acid lipoxygenase ALOX12 (Homo sapiens) (UniProt P18054) (assay: Primary qHTS assay for inhibitors of human arachidonate 12S-lipoxygenase (ALOX12): Round 2). Details: purified 12hLO, xylenol orange hydroperoxide absorbance; activity change, negative = inhibition: at 108 µM (top of the series) unless noted.
Method in brief: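 Purified human 12hLO (150 nM final) in 25 mM Hepes, 0.01% Triton X-100, pH 7.0 was preincubated 15 min at room temperature with compound. Then 40 uM arachidonic acid was added, 30 min. Hydroperoxide was read by Fe-XO absorbance ratio 573/405 nm.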
In the case of `CCn1c(SCC(=O)c2ccc(NC(C)=O)c(OC)c2)nnc1-c1ccc(NS(C)(=O)=O)cc1`, the Potency is reported as inconclusive: 2.24 µM [inhibitor, full curve].
With `Cc1ccc(S(=O)(=O)N(C)C[C@@H]2OCCCC[C@H](C)Oc3ccc(NC(=O)Nc4ccc(F)cc4)cc3C(=O)N([C@H](C)CO)C[C@H]2C)cc1` the Potency was inconclusive: 89.1 µM [inhibitor, single point].
For `Cc1nnc(-c2ccccc2)o1`, the “activity change, negative = inhibition” value was inactive: -11.5%.
With `C=CCOn1c(=O)c(-c2ccc(OC)cc2)[n+]([O-])c2ccccc21` the Potency was inconclusive: 126 µM [inhibitor, single point].
In the case of `O=C(NN=Cc1c(O)ccc2ccccc12)c1ccncc1`, the Potency is reported as inconclusive: 79.4 µM [inhibitor, partial curve, poor fit].
`CCOc1ccc(CN2CCN(C(=O)c3ccco3)CC2)cc1` was tested, and the Potency was inconclusive: 0.355 µM [inhibitor, full curve, poor fit].
`NC(=O)CC(NC(=O)c1ccc(Br)cc1)c1ccc(N2CCN(c3ccccn3)CC2)c([N+](=O)[O-])c1` (centres undefined) was tested, and the “activity change, negative = inhibition” value was inactive: -24.3%.
In the case of `COc1ccc(CCn2c(C(C)C)nc3oc4ccccc4c(=O)c3c2=O)cc1`, the Potency is reported as inconclusive: 100 µM [inhibitor, partial curve, poor fit].
For `Cc1ccc(OCCN2C(=O)S/C(=C\c3ccc(C)o3)C2=O)cc1`, the Potency was inconclusive: 56.2 µM [inhibitor, partial curve, poor fit].
In the case of `CCOC(=O)c1sc(NC(=S)NC(=O)C2CCCC2)cc1C`, the Potency is reported as inconclusive: 39.8 µM [inhibitor, partial curve, poor fit].
In the case of `Cc1nc2cc(NC(=O)c3ccc(C(C)C)cc3)ccc2o1`, the Potency is reported as inconclusive: 31.6 µM [inhibitor, partial curve].
`Nc1ncnc2c1ncn2[C@@H]1O[C@H](CNCc2ccccc2OCc2ccc(Cl)cc2Cl)[C@@H](O)[C@H]1O` was tested, and the Potency was inconclusive: 158 µM [inhibitor, single point].
`CCCCN(Cc1ccccc1)c1ccc(NS(=O)(=O)c2ccc(CC(C)C)cc2)cc1C(=O)O` was tested, and the Potency was inconclusive: 2 µM [inhibitor, full curve, poor fit].
`CC(C)C(=O)N1Cc2ccccc2CC2(CCCCN2Cc2ccccn2)C1` (centres undefined) was tested, and the Potency was inconclusive: 17.8 µM [inhibitor, partial curve, poor fit].
In the case of `COC(=O)c1ccc(N=NNc2ccccc2)cc1`, the Potency is reported as inconclusive: 56.2 µM [inhibitor, partial curve, poor fit].
In the case of `Nc1c(C(=O)NCc2ccco2)sc2nc3c(cc12)C(=O)CCC3`, the “activity change, negative = inhibition” value is reported as inactive: -22.3%.
`CN1CCN(C2=C(Cl)C(=O)N(Cc3ccccc3)C2=O)CC1` was tested, and the “activity change, negative = inhibition” value was inactive: -7.13%.
With `Clc1ccc(OCc2nc(-c3ccccn3)no2)c(Br)c1` the “activity change, negative = inhibition” value was inactive: 8.26%.
`O=C(c1cc(C(F)(F)F)cc(C(F)(F)F)c1)N1CCC2(CC1)CCN(c1ccncc1)CC2` was tested, and the “activity change, negative = inhibition” value was inactive: -2.29% [at 57.4 µM].
For `COC(=O)[C@]12CCCCC=C1N(Cc1cccc3ccccc13)C(=O)[C@H](CC(=O)N1CCCC1)C2`, the Potency was inconclusive: 100 µM [inhibitor, single point].
`COc1ccc(C(=O)NNC(=O)CN2CCC(n3nnc4cc(C(F)(F)F)ccc43)CC2)cc1` was tested, and the “activity change, negative = inhibition” value was inactive: 9.13% [at 57.4 µM].
`CC1CCc2c(sc(Nc3nc4c(F)cccc4s3)c2C(N)=O)C1` (centres undefined) was tested, and the Potency was active: 44.7 µM.
For `CCn1nc(C(=O)OCc2ccc(C(C)(C)C)cc2)c2ccccc2c1=O`, the Potency was inconclusive: 100 µM [inhibitor, single point].
With `O=C(Nc1ccc2c(ccn2CCN2CCOCC2)c1)C1CCC1` the “activity change, negative = inhibition” value was inactive: 3.21%.
In the case of `COc1cccc(NC(=O)CNC(=O)c2ccccc2)c1`, the “activity change, negative = inhibition” value is reported as inactive: 0%.
For `COc1ccccc1OC(C)C(=O)Nc1cccc(-c2nc3ccccc3s2)c1` (centres undefined), the Potency was inconclusive: 112 µM [inhibitor, partial curve, poor fit].
`Cc1cc(C)n(-c2nc3ccccc3nc2Nc2ccc(N(C)C)cc2)n1` was tested, and the Potency was inconclusive: 1.41 µM [inhibitor, single point].
In the case of `CCOc1ccccc1CN1CCC2(CCN(CCC(C)C)CC2)Oc2ccccc21`, the Potency is reported as inconclusive: 35.5 µM [inhibitor, full curve].
For `Cc1onc(-c2cnn(C)c2NCc2ccccc2)c1C(=O)N1CCN(CCO)CC1`, the “activity change, negative = inhibition” value was inactive: 26.4% [at 176 µM].
`CCc1cccc(NC(=O)CCc2nc3sc4c(c3c(=O)[nH]2)CCCC4)c1` was tested, and the Potency was inconclusive: 35.5 µM [inhibitor, partial curve, poor fit].
`Cc1ccc(C(=O)OCC(=O)N(CC(C)C)c2c(N)n(Cc3ccccc3)c(=O)[nH]c2=O)o1` was tested, and the activity change, negative = inhibition was inconclusive: -30.3% [inhibitor].
`CCOc1cc(C(=O)Nc2ccc(N3CCCC3)c(Cl)c2)cc(OCC)c1OCC` was tested, and the Potency was inconclusive: 0.355 µM [inhibitor, full curve, poor fit].
With `c1ccc(COc2ccc(OCCCn3cncn3)cc2)cc1` the “activity change, negative = inhibition” value was inactive: -8.44%.
With `Cc1ccc(-c2ccc(/C=N\NC(=O)C3C(=O)NCC3c3ccccc3)o2)cc1Cl` (centres undefined) the “activity change, negative = inhibition” value was inactive: 0%.
For `Oc1c(Cl)cc(Cl)cc1C=Nc1cccc2ccccc12`, the Potency was inconclusive: 8.91 µM [inhibitor, full curve].
In the case of `O=c1oc2ccccc2c(NCc2ccccc2)c1NS(=O)(=O)c1ccc(F)cc1F`, the Potency is reported as inconclusive: 126 µM [inhibitor, single point].
With `CSCc1ccc(C(=O)Nc2ccccc2C(F)(F)F)cc1` the Potency was inconclusive: 39.8 µM [inhibitor, partial curve, poor fit].
For `Cc1cc(C)nc(Nc2ncc(O)n2-c2ccc(Cl)cc2)n1`, the Potency was inconclusive: 7.94 µM [inhibitor, full curve].
With `CC1CN(S(=O)(=O)c2cccc(C(=O)OCCOc3ccccc3)c2)CC(C)O1` (centres undefined) the “activity change, negative = inhibition” value was inactive: 3.11%.
For `Cc1ccccc1NC(=O)CC(NCc1cccnc1)C(=O)O` (centres undefined), the Potency was inconclusive: 7.94 µM [inhibitor, full curve, poor fit].
In the case of `Cc1cc(/C=C(\C#N)C(=O)NCc2ccccc2)cc(C)c1O`, the Potency is reported as inconclusive: 56.2 µM [inhibitor, partial curve, poor fit].
In the case of `Cc1ccc2c(c1)c1nnc(SCC(=O)Nc3ccccc3C(F)(F)F)nc1n2CC(=O)O`, the Potency is reported as inconclusive: 0.251 µM [inhibitor, full curve, poor fit].
For `Cc1ccc(-c2cc(C(=O)Nc3cc(C)n(C)n3)c3ccccc3n2)cc1`, the “activity change, negative = inhibition” value was inactive: -29.3%.
`O=C(Cn1nc(-c2cccs2)c2ccccc2c1=O)NCC(F)(F)F` was tested, and the “activity change, negative = inhibition” value was inactive: -1.63%.
With `Cc1cc(C)n(-c2nc(Nc3ccccc3C(F)(F)F)nc(-n3nc(C)cc3C)n2)n1` the Potency was inconclusive: 0.891 µM [inhibitor, full curve, poor fit].
`Cc1ccc(C(CC(=O)O)NC(=O)c2nn(C)c(=O)c3ccccc23)cc1` (centres undefined) was tested, and the Potency was inconclusive: 5.01 µM [inhibitor, full curve, poor fit].
`Cc1cc(O)c(C(C)C)cc1NC(=S)Nc1cc(C(C)C)c(O)cc1C` was tested, and the Potency was inconclusive: 44.7 µM [inhibitor, partial curve, poor fit].
With `COc1ccc2ccccc2c1CNCCN1CCOCC1` the Potency was inconclusive: 1.26 µM [inhibitor, full curve, poor fit].
With `CC(=O)Nc1cc2c(=O)n(Cc3ccccc3)c(C)nc2cc1N1CCOCC1` the Potency was active: 14.1 µM.
For `O=S(=O)(c1ccc(-c2cc(C(F)(F)F)on2)s1)N1CCN(c2ccccc2F)CC1`, the Potency was inconclusive: 126 µM [inhibitor, partial curve, poor fit].
`Cc1ccc(S(=O)(=O)N/N=C/c2sccc2C)cc1[N+](=O)[O-]` was tested, and the Potency was inconclusive: 126 µM [inhibitor, single point].
For `CCOc1ccccc1NC(=O)Cn1c(N2CCc3ccccc3C2)nc(C)cc1=O`, the Potency was inconclusive: 50.1 µM [inhibitor, partial curve, poor fit].
In the case of `CCCCNC(=O)c1cc(-c2ccccc2)sc1N`, the Potency is reported as inconclusive: 39.8 µM [inhibitor, partial curve, poor fit].
With `C[C@H]1CN([C@@H](C)CO)C(=O)c2cc(NS(=O)(=O)c3ccc(Cl)cc3)ccc2O[C@@H]1CN(C)CC1CCCCC1` the Potency was inconclusive: 56.2 µM [inhibitor, partial curve, poor fit].
In the case of `O=C(Nc1ccc(Cl)c(Cl)c1)N1CCCCCC1`, the “activity change, negative = inhibition” value is reported as inactive: -11.6%.
In the case of `COC(=O)c1ccccc1NC(=O)c1cc(-c2ccccc2O)no1`, the Potency is reported as inconclusive: 126 µM [inhibitor, partial curve, poor fit].
In the case of `CN(C)CC(=O)N1Cc2ccccc2CC2(CCCN(CC3CCNC3)C2)C1` (centres undefined), the Potency is reported as inconclusive: 7.94 µM [inhibitor, full curve, poor fit].
`CCCN1CCN(c2ncnc3sc(C(=O)Nc4ccc(C(C)C)cc4)c(C)c23)CC1` was tested, and the Potency was inconclusive: 100 µM [inhibitor, partial curve, poor fit].
`Fc1cccc(-c2n[nH]c(=S)n2-c2ccccc2)c1` was tested, and the Potency was inconclusive: 35.5 µM [inhibitor, partial curve, poor fit].
For `COc1cccc(-c2sc3ccc(OC)cc3c2-c2ccc(OCCN(C)C)cc2)c1`, the Potency was inconclusive: 44.7 µM [inhibitor, partial curve, poor fit].
With `CN(C)c1oc(-c2ccc(F)cc2)nc1S(=O)(=O)c1ccc2c(c1)OCCO2` the Potency was inconclusive: 2 µM [inhibitor, full curve, poor fit].
In the case of `CCOC(=O)/C(=N/Nc1ccccc1)N1CCCc2ccccc21`, the Potency is reported as inconclusive: 44.7 µM [inhibitor, partial curve, poor fit].
For `O=C(NN=C1c2ccccc2-c2ccccc21)c1ccccc1Br`, the “activity change, negative = inhibition” value was inactive: 25.3%.
In the case of `COc1cc(SC)ccc1C(=O)Nc1ccc(S(=O)(=O)Nc2nccc(C)n2)cc1`, the “activity change, negative = inhibition” value is reported as inactive: 5.14%.
